Measured values taken from patent US20160303089A1, “COMPOUND PERTAINING TO NEUROPOIESIS AND DRUG COMPOSITION” (KYOTO UNIVERSITY, priority 2013, published 2016).
Some of these results come from one statement about several compounds together.

What was measured:
[1] = system: cyclin D1; experiment: Cyclin D1 expression in cultured neural stem cells (western blotting); assay type: cell-based; settings: neural stem cells isolated from fetal mouse brain, cultured in presence of compound
[2] = system: cultured neural stem cells; experiment: BrdU incorporation in cultured neural stem cells (ArrayScan); assay type: cell-based; settings: neural stem cells isolated from fetal mouse brain, cultured in presence of compound

SMILES	expression level of cyclin D1 [1]	amount of incorporation of BrdU (cell proliferation marker) [2]
CCN1/C(=C/C(C)=O)Sc2ccc3c(c21)CCO3 [compound 1, (Z)-1-[1-ethyl-7,8-dihydrobenzofuro[4,5-d]thiazol-2(1H)-ylidene]propan-2-one]	increased	increased
CCN1/C(=C/C(C)=O)Sc2ccc3occc3c21 [compound 2, (Z)-1-[1-ethyl-7,8-benzofuro[4,5-d]thiazol-2(1H)-ylidene]propan-2-one]	increased	increased
